Laboratory results: PubChem BioAssay AID1671195 (Yale University, 2021)
In all, the deposit lists about 22,000 reagents; below is a random part of them. About 1,510 of them (6.9%) were called active. 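Active includes knockdowns raising or lowering LDL uptake; positive z-scores mean more uptake, negative mean less.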 A number with no mark means an inactive call.

Aim: 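Knockdowns that increase or decrease uptake of fluorescent LDL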 (primary screen)
Cell system: human Huh7 hepatoma cells
Reagents: siRNA pool against human genes, 18 nM
Duration: about 2 to 2.5 days of knockdown, then 8 h LDL uptake
Challenge: DiI-labelled LDL at 30 µg/ml for 8 h, in lipoprotein-deficient serum medium
Measured: 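Fluorescent LDL signal imaged in cells, scaled to the plate median, robust z-score for each replicate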
Direction: robust z-score: higher = more LDL uptake after knockdown
Active means: 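a gene counts as active if at least two replicate z-scores exceed ±2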

What did the screen give for ATP10A?
robust z-score, replicate 1: -1.02; robust z-score, replicate 2: -1.62; robust z-score, replicate 3: -1.76

How did the screen score CNOT6L?
robust z-score, replicate 1: 1.58; robust z-score, replicate 2: 0.911; robust z-score, replicate 3: 1.25

For DRC2, what does the deposit list?
robust z-score, replicate 1: -0.669; robust z-score, replicate 2: -0.651; robust z-score, replicate 3: -0.716

For SRGN, how do the results read?
robust z-score, replicate 1: -0.955; robust z-score, replicate 2: 1.26; robust z-score, replicate 3: -0.776

What is on record for VPS26A?
robust z-score, replicate 1: 0.357; robust z-score, replicate 2: -0.0667; robust z-score, replicate 3: 0.191

With TUBGCP3, how do the results read?
robust z-score, replicate 1: 1.04; robust z-score, replicate 2: 0.681; robust z-score, replicate 3: 0.622

How did the screen score SRSF2?
robust z-score, replicate 1: 0.624; robust z-score, replicate 2: 0.538; robust z-score, replicate 3: 1.17

With PALM, what does the deposit list?
robust z-score, replicate 1: 1.01; robust z-score, replicate 2: 0.192; robust z-score, replicate 3: 0.982

For LINC00642, what does the deposit list?
robust z-score, replicate 1: -0.411; robust z-score, replicate 2: -0.667; robust z-score, replicate 3: -0.706

Already shown: an excerpt of the list.
VPS26A → robust z-score, replicate 1 = 0.357; robust z-score, replicate 2 = -0.0667; robust z-score, replicate 3 = 0.191
TUBGCP3 → robust z-score, replicate 1 = 1.04; robust z-score, replicate 2 = 0.681; robust z-score, replicate 3 = 0.622

More results:
For DNAJC19, what was measured?
robust z-score, replicate 1: 1.49 (active); robust z-score, replicate 2: 2.78; robust z-score, replicate 3: 2.34

For LOC440505 (retired record), how do the results read?
robust z-score, replicate 1: 0.923; robust z-score, replicate 2: 1.23; robust z-score, replicate 3: 0.542

For LOC440890 (retired record), what was measured?
robust z-score, replicate 1: -0.55; robust z-score, replicate 2: -0.854; robust z-score, replicate 3: -1.14

What is on record for RIOX2?
robust z-score, replicate 1: -0.0647; robust z-score, replicate 2: -0.527; robust z-score, replicate 3: -0.609

With LOC387983 (retired record), how do the results read?
robust z-score, replicate 1: 0.398; robust z-score, replicate 2: -0.62; robust z-score, replicate 3: -0.383

For ENPP2, what was measured?
robust z-score, replicate 1: 0.277; robust z-score, replicate 2: 0.331; robust z-score, replicate 3: 0.121

Which result is listed for PRDX2?
robust z-score, replicate 1: 0.215; robust z-score, replicate 2: 0; robust z-score, replicate 3: 0.319

How did the screen score GPR162?
robust z-score, replicate 1: 0.738; robust z-score, replicate 2: 1.26; robust z-score, replicate 3: 0.868

How did the screen score PVR?
robust z-score, replicate 1: -0.221; robust z-score, replicate 2: -0.0485; robust z-score, replicate 3: -0.126

With NT5C3A, how do the results read?
robust z-score, replicate 1: 0.678; robust z-score, replicate 2: 1.37; robust z-score, replicate 3: -1.94

With FRMPD2, what was measured?
robust z-score, replicate 1: -0.683; robust z-score, replicate 2: 0.697; robust z-score, replicate 3: 0.594

With SPINDOC, what was measured?
robust z-score, replicate 1: -1.76; robust z-score, replicate 2: -2.04; robust z-score, replicate 3: -1.17

Which result is listed for FBXW10B?
robust z-score, replicate 1: -0.897; robust z-score, replicate 2: -0.811; robust z-score, replicate 3: -1.14

With HSDL2, how do the results read?
robust z-score, replicate 1: 0.266; robust z-score, replicate 2: -0.26; robust z-score, replicate 3: -0.247

With PGBP, what was measured?
robust z-score, replicate 1: -0.868; robust z-score, replicate 2: -1.11; robust z-score, replicate 3: -1.15
